Measurements as given in US5696239A (The Dow Chemical Company, priority 1995, dated 1997).

System: CC-46 monoclonal antibody
Experiment: Attachment of Y-90 complex to CC-46 monoclonal antibody (complexes per antibody)
Details: CC-46 antibody, 40:1 complex to antibody, NaCNBH3

Row | Structure (SMILES) | average complexes per antibody [complexes per antibody]
1 | Nc1cc(CN(CCN(CC(=O)O)CC(=O)O)CC(=O)O)c(O)c(CN(CCN(CC(=O)O)CC(=O)O)CC(=O)O)c1 [Example 12] | 5.4
2 | Nc1ccc(CC(CN(CCN(CC(=O)O)CC(=O)O)CC(=O)O)N(CC(=O)O)CC(=O)O)cc1 (centres unmarked) [ABDTPA, 1-(p-aminobenzyl)diethylenetriaminepentaacetic acid] | 5.0
